Literature values as cited in patent US20180344735A1, “USE OF sGC STIMULATORS FOR THE TREATMENT OF GASTROINTESTINAL SPHINCTER DYSFUNCTION” (Ironwood Pharmaceuticals, Inc., priority 2015, published 2018).
For at least one compound, name, drawing or mass did not settle the structure.

Tested on: achalasia patients
Conditions: sublingual, mild or moderate disease; cited from earlier work

COC(=O)C1=C(C)NC(C)=C(C(=O)OC)C1c1ccccc1[N+](=O)[O-] [nifedipine]
people with significantly improved outcomes: 75%
